Where a name gives a salt, the structure may show the parent alone. Some entries share one result that the patent states for a list of compounds.
Target: T1, Monoaminoxidase Typ B (Rattus norvegicus, UniProt P19643)
T1 construct: Die Bestimmung der Monoaminoxidase erfolgte in verdünntem Rattenhirnhomogenat; from tissue; host or cells: rat brain homogenate
T1 sequence (P19643 1-520): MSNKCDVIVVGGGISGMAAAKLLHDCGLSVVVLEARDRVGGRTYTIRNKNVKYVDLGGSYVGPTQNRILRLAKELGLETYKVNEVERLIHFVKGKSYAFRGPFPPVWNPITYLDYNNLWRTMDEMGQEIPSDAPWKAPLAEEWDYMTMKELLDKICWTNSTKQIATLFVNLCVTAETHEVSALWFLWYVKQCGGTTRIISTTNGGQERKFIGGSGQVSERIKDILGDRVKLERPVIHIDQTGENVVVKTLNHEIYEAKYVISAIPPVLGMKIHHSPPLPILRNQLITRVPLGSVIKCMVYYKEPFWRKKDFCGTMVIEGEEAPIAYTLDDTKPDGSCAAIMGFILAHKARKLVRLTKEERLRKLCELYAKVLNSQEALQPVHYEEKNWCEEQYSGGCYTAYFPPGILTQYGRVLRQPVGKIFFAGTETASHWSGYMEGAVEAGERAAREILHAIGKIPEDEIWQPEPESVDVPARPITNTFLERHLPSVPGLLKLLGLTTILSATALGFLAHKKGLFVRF
Assay: Inhibition of monoamine oxidase type B in rat brain homogenate (14C-phenylethylamine)
Type: biochemical, Ratten
Conditions: result in words
Experimental: Hemmung der Monoaminoxidase
Die Bestimmung der Monoaminoxidase erfolgte in verdünntem Rattenhirnhomogenat dem 1. unterschiedliche Konzentrationen der zu prüfenden Testsubstanzen und 2. für die Bestimmung der Monoaminoxidase Typ A ¹⁴C-Tryptamin in einer Konzentration von 0,4 µmol, zur Bestimmung der Monoaminoxidase Typ B ¹⁴C-Phenylethylamin in einer Konzentration von 0,25 µmol zugesetzt wurde. Dieser Ansatz wurde 20 Minuten bei 37°C inkubiert. Die Reaktion wird durch 0,1 n HCl gestoppt und die Reaktionsprodukte nach Extraktion in Toluol-Szintillator (PPO + POPOP in Toluol) bestimmt. Der Blindwert wird in analogen Ansätzen mit einer Inkubationszeit von t = 0 Minuten bestimmt.
Aus den bei den verschiedenen Inhibitorkonzentrationen gegen die Kontrolle ermittelten Hemmwerten wurde durch lineare Regression nach logit-log-Transformation die mittlere Hemmkonzentration (IC₅₀) berechnet.

| SMILES | Hemmung der Monoaminoxidase B |
| --- | --- |
| CCc1ccc(-n2ccc(=N)cn2)cc1.Cl [Beispiel 7, 1-(4-Ethylphenyl)-4-(1H)-pyridazinimin-hydrochlorid] | hervortretenden Hemmung der Monoaminoxidase B |
| Cc1ccc(-n2ccc(=N)cn2)cc1Cl [Beispiel 42, 1-(3-Chlor-4-methylphenyl)-4-(1H)-pyridazinimin-hydrochlorid] | hervortretenden Hemmung der Monoaminoxidase B |

From EP0227941A1, “1-Phenyl-4-(1H)-pyridazinimines, their preparation and use” (BASF Aktiengesellschaft, priority 1985, dated 1987)
